Results deposited as PubChem BioAssay AID1508597 (Cure First, 2020)
Here is an unselected part of about 2,100 reagents tested. 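Calls flag viability under 80% in either arm, not effects specific to rucaparib; the reference for percent is not stated.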 Not given: the 100% reference.

- Aim: 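Knock-downs altering ovarian cancer cell survival with or without PARP inhibitor rucaparib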 (primary screen)
- Cell system: human ovarian carcinoma lines grown from tumours: OCI-P5x (papillary serous) and OCI-C5x (clear cell)
- Knock-down reagent: siRNA pool against human genes, 1.25 pmol siRNA per well
- Duration: 72 h or 96 h, depending on the cell culture
- Treatment: rucaparib 20 µM (about IC30) or vehicle, present until read-out
- Detection: 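Luminescent ATP-based viability assay read 72 or 96 h after transfection, depending on culture, given as normalised percent viability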
- Reading the numbers: viability, normalised: higher = more viable cells remaining
- Active means: 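Active when normalised viability falls below 80 percent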
- Calls: active = viability under 80%; inactive = viability 80% or more

no.	target	rucaparib or vehicle	cell line	technical replicate	viability, normalised (%)	Outcome
1	PIP4K2A	Rucaparib	OCI-C5x (clear cell)	1	58.7	active
2	PIP4K2A	Rucaparib	OCI-C5x (clear cell)	2	92	inactive
3	PIP4K2A	Rucaparib	OCI-C5x (clear cell)	3	64.3	active
4	PIP4K2A	Rucaparib	OCI-P5x (serous)	1	82.3	inactive
5	PIP4K2A	Rucaparib	OCI-P5x (serous)	2	92.5	inactive
6	PIP4K2A	Rucaparib	OCI-P5x (serous)	3	81.6	inactive
7	PIP4K2A	Vehicle	OCI-C5x (clear cell)	1	60.6	active
8	PIP4K2A	Vehicle	OCI-C5x (clear cell)	2	74.3	active
9	PIP4K2A	Vehicle	OCI-C5x (clear cell)	3	81.7	inactive
10	PIP4K2A	Vehicle	OCI-P5x (serous)	1	69	active
11	PIP4K2A	Vehicle	OCI-P5x (serous)	2	55.2	active
12	PIP4K2A	Vehicle	OCI-P5x (serous)	3	59.6	active
13	ARID1A	Rucaparib	OCI-C5x (clear cell)	1	57.4	active
14	ARID1A	Rucaparib	OCI-C5x (clear cell)	2	66.3	active
15	ARID1A	Rucaparib	OCI-C5x (clear cell)	3	67.8	active
16	ARID1A	Rucaparib	OCI-P5x (serous)	1	99.8	inactive
17	ARID1A	Rucaparib	OCI-P5x (serous)	2	106	inactive
18	ARID1A	Rucaparib	OCI-P5x (serous)	3	91.2	inactive
19	ARID1A	Vehicle	OCI-C5x (clear cell)	1	57.4	active
20	ARID1A	Vehicle	OCI-C5x (clear cell)	2	46.2	active
21	ARID1A	Vehicle	OCI-C5x (clear cell)	3	49.9	active
22	ARID1A	Vehicle	OCI-P5x (serous)	1	63.8	active
23	ARID1A	Vehicle	OCI-P5x (serous)	2	53	active
24	ARID1A	Vehicle	OCI-P5x (serous)	3	76.7	active

Continued, starting with the last 4 of the part before.
no.	target	rucaparib or vehicle	cell line	technical replicate	viability, normalised (%)	Outcome
21	ARID1A	Vehicle	OCI-C5x (clear cell)	3	49.9	active
22	ARID1A	Vehicle	OCI-P5x (serous)	1	63.8	active
23	ARID1A	Vehicle	OCI-P5x (serous)	2	53	active
24	ARID1A	Vehicle	OCI-P5x (serous)	3	76.7	active
25	POLN	Rucaparib	OCI-C5x (clear cell)	1	43.8	active
26	POLN	Rucaparib	OCI-C5x (clear cell)	2	66.4	active
27	POLN	Rucaparib	OCI-C5x (clear cell)	3	55.3	active
28	POLN	Rucaparib	OCI-P5x (serous)	1	78.8	active
29	POLN	Rucaparib	OCI-P5x (serous)	2	68.8	active
30	POLN	Rucaparib	OCI-P5x (serous)	3	72.9	active
31	POLN	Vehicle	OCI-C5x (clear cell)	1	55.7	active
32	POLN	Vehicle	OCI-C5x (clear cell)	2	46.4	active
33	POLN	Vehicle	OCI-C5x (clear cell)	3	50.7	active
34	POLN	Vehicle	OCI-P5x (serous)	1	72.9	active
35	POLN	Vehicle	OCI-P5x (serous)	2	87.5	inactive
36	POLN	Vehicle	OCI-P5x (serous)	3	83.1	inactive
37	DLG2	Rucaparib	OCI-C5x (clear cell)	1	63.7	active
38	DLG2	Rucaparib	OCI-C5x (clear cell)	2	64.7	active
39	DLG2	Rucaparib	OCI-C5x (clear cell)	3	71.1	active
40	DLG2	Rucaparib	OCI-P5x (serous)	1	75.7	active
41	DLG2	Rucaparib	OCI-P5x (serous)	2	92.5	inactive
42	DLG2	Rucaparib	OCI-P5x (serous)	3	101	inactive
43	DLG2	Vehicle	OCI-C5x (clear cell)	1	64.2	active
44	DLG2	Vehicle	OCI-C5x (clear cell)	2	65.2	active
45	DLG2	Vehicle	OCI-C5x (clear cell)	3	66.4	active
46	DLG2	Vehicle	OCI-P5x (serous)	1	88.1	inactive
47	DLG2	Vehicle	OCI-P5x (serous)	2	82.9	inactive
48	DLG2	Vehicle	OCI-P5x (serous)	3	90.3	inactive
